Test results: PMC7819943, “Rice protein-binding microarrays: a tool to detect cis-acting elements near promoter regions in rice”
This is one part of the list.

The chains behind the UniProt entries cited, without tags or fusion partners.
UniProt Q0JBA9, entry or part of it: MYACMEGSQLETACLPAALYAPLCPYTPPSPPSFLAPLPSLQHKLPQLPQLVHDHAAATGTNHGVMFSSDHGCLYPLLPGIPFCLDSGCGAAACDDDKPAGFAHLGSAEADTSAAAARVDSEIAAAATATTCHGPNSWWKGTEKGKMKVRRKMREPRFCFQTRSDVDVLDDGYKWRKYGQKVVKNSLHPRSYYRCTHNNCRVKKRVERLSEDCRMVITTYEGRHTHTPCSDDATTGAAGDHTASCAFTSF

Molecular target: OsWRKY34 (Oryza sativa, UniProt Q0JBA9 1-250)
Assay: protein-binding microarray (RPBM); PBS, 2% BSA, 51.3 ng/ul salmon testes DNA, 50 uM zinc acetate, 200 nM TF, 25 C, 1 h; high values mean tight binding
Conditions: protein: recombinant; tags: N-terminal polyhistidine and DsRed monomer fusion (pET32a); label: CyDye5-dUTP incorporated in the synthesized complementary strand; 3' TTTTT single-stranded linker to array surface; dsDNA, one strand shown
Procedure, shortened: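 Transcription factors were each fused at the N-terminus to a polyhistidine tag plus DsRed and expressed in E. coli BL21-CodonPlus before Ni–NTA purification. Binding to a double-stranded custom Agilent array was carried out with 200 nM protein at 25 °C for 1 h in PBS, 2% BSA, salmon testes DNA and 50 µM zinc acetate. The binding signal is per-feature fluorescence intensity, in arbitrary units, on an Axon 4000B scanner.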

Sequence | binding signal
ATCCCCATCCTATGCTCGCCCCATGTCGTCGCGTCCGCCTCGGAGTCACCTAGTGCAG | 11100 fluorescence intensity (a.u.)
AATTTTAGAGTTAATTTTATTTTTACCGTACTTTATTTTTCGGAGTCACCTAGTGCAG | 8040 fluorescence intensity (a.u.)
CCCGCCGCCTCCACGCATTCCTTCGCCCACCAAAACCCTACGGAGTCACCTAGTGCAG | 9460 fluorescence intensity (a.u.)
TTCTTCTTCTTCTTCTTCGGTGACAATCTCCGTTTCGTCTCGGAGTCACCTAGTGCAG | 8380 fluorescence intensity (a.u.)
AGTTCGCTGATCACCCAATCACCATTCGGTCTTCCATTCACGGAGTCACCTAGTGCAG | 9900 fluorescence intensity (a.u.)
TGCTGCCGCCTTGTGTATAGCCTTGTGTATCTCCTTTGGCCGGAGTCACCTAGTGCAG | 8310 fluorescence intensity (a.u.)
TAGTTCATCCTTGACATCAAGTGGGTTGCTAGTCTCATTCCGGAGTCACCTAGTGCAG | 9450 fluorescence intensity (a.u.)
TATCTGCCATTAATCATTGACTTGTACATCTGTCTTGCTACGGAGTCACCTAGTGCAG | 9400 fluorescence intensity (a.u.)
AATAAGACGAACGATCAAACATGTTTAAAAAAGTCAACGGCGGAGTCACCTAGTGCAG | 9200 fluorescence intensity (a.u.)
TCATGTATAATTTTTCATTTTCCATTTATTACCGTCATCTCGGAGTCACCTAGTGCAG | 8260 fluorescence intensity (a.u.)
ATTCCTTGATTTGTAACGTTCTTCTTGCATCTATTCTTCACGGAGTCACCTAGTGCAG | 9540 fluorescence intensity (a.u.)
CCGCTTCTCTCTCTCTCTCTCTCTCTCTCTCTTTCTCTCTCGGAGTCACCTAGTGCAG | 11800 fluorescence intensity (a.u.)
GTAAGGCCCTGTTTAGACCCTATCTAAAAATTTTCACTCTCGGAGTCACCTAGTGCAG | 8690 fluorescence intensity (a.u.)
AAGTTTTAGTAAATACACACAATACATCATTTTTTCGAAACGGAGTCACCTAGTGCAG | 11200 fluorescence intensity (a.u.)
TTCGATTCCAATTCCAGTTCGTCTCGCTCGCCGCCAAATCCGGAGTCACCTAGTGCAG | 11600 fluorescence intensity (a.u.)
CCACAGGCTACTTCGCATCGCATCGCCTCACCCCGCCGCCCGGAGTCACCTAGTGCAG | 9080 fluorescence intensity (a.u.)
TGCTACATCGATCGAGCTTACTAGCTTTCCATCATCCCACCGGAGTCACCTAGTGCAG | 8740 fluorescence intensity (a.u.)
TCTGCTGTTTGAATTTCGAACCTTTTTTTTTGAAGTCCTTCGGAGTCACCTAGTGCAG | 9180 fluorescence intensity (a.u.)
AGGCCCCATCACAATCTCCTCCTGTCCTGCCCGGTGTTTCCGGAGTCACCTAGTGCAG | 8140 fluorescence intensity (a.u.)
ATAAATTTTCAACTTTTCTGTTATATCGTTTTAATTTCAACGGAGTCACCTAGTGCAG | 8650 fluorescence intensity (a.u.)
CTTTAGTCAAAGTCAAACTACTCTAAGTTTGACTAACTCTCGGAGTCACCTAGTGCAG | 13500 fluorescence intensity (a.u.)

Rewritten with tabs: entries from further up
Sequence	binding signal
ATCCCCATCCTATGCTCGCCCCATGTCGTCGCGTCCGCCTCGGAGTCACCTAGTGCAG	11100 fluorescence intensity (a.u.)
AATTTTAGAGTTAATTTTATTTTTACCGTACTTTATTTTTCGGAGTCACCTAGTGCAG	8040 fluorescence intensity (a.u.)
CCCGCCGCCTCCACGCATTCCTTCGCCCACCAAAACCCTACGGAGTCACCTAGTGCAG	9460 fluorescence intensity (a.u.)

More records.

Sequence | binding signal
GGCTATCGTTGGGGATGCAACACCTCAACCTGTCCAGCAACGGAGTCACCTAGTGCAG | 8340 fluorescence intensity (a.u.)
CCGTCGAGTCCAACCCGCCGCCGGTCCGCCGCCATCCCGCCGGAGTCACCTAGTGCAG | 8220 fluorescence intensity (a.u.)
GCCTTGTTTAGTTGGGGAAAATTTTTGGGTTTGATTATCACGGAGTCACCTAGTGCAG | 10800 fluorescence intensity (a.u.)
TCCAAACTATTGAGTCATCCTATGTAACTTTTTTTTTGTTCGGAGTCACCTAGTGCAG | 9080 fluorescence intensity (a.u.)
CATCTCAGTGTGTTGTGGCAAATCTATTTCGTTTTTCTAACGGAGTCACCTAGTGCAG | 8400 fluorescence intensity (a.u.)
TGGATCTTGTGTACGATTTCTGTACTTCAATACATATCTTCGGAGTCACCTAGTGCAG | 8192 fluorescence intensity (a.u.)
ACCGTGTGTCCGTTTGACTCCGTTCAACTTCCAAAATTCCCGGAGTCACCTAGTGCAG | 8320 fluorescence intensity (a.u.)
ACCGCGTCGGCGTCGCCGCCGCCACCGCCGCCCGCCACCTCGGAGTCACCTAGTGCAG | 8050 fluorescence intensity (a.u.)
CATATATTTCTTCTCGCCTACATGTGAGTCCCGCATTACTCGGAGTCACCTAGTGCAG | 9110 fluorescence intensity (a.u.)
AATCACCATCATCGCTGTTTGGGAGGGTCTGCCTGGCTTACGGAGTCACCTAGTGCAG | 13100 fluorescence intensity (a.u.)
CGTATAAGCGTGGTGTGGTTGTTTATTTTCTTTTTCCTGACGGAGTCACCTAGTGCAG | 10300 fluorescence intensity (a.u.)
ATGGGCCTTCATCAGTTTGATGTTTGCATATAATATTGCCCGGAGTCACCTAGTGCAG | 9310 fluorescence intensity (a.u.)
AGAACCCTACATCTCATCTTCCACCACAGCAATCTCTCAACGGAGTCACCTAGTGCAG | 11100 fluorescence intensity (a.u.)
TAATTTTCCATTGTTTTTCTCCATGTATGTGGGCTACCTTCGGAGTCACCTAGTGCAG | 10000 fluorescence intensity (a.u.)
GACGCATGGCAATGTACATATTTGCTGCCCGTACCTTTCGCGGAGTCACCTAGTGCAG | 8060 fluorescence intensity (a.u.)
GTATAAAAATCCTCGTCTCTGTCTCTTTTACTACAATCTTCGGAGTCACCTAGTGCAG | 8120 fluorescence intensity (a.u.)
GATCGAAACATCACAAAATCATATCTTGTCGCTTTCTCAACGGAGTCACCTAGTGCAG | 9210 fluorescence intensity (a.u.)
TATGTTCGAAATTTGCAAGTATTGTCCTCTTCATAAACTCCGGAGTCACCTAGTGCAG | 8070 fluorescence intensity (a.u.)
GTACCCATGCTATCATCGGTTCCATGCATCTCATCCTTCACGGAGTCACCTAGTGCAG | 11800 fluorescence intensity (a.u.)
GTCTTCTCTTTTTATCTCCTCAATATGTGTTTATAGCTGGCGGAGTCACCTAGTGCAG | 8340 fluorescence intensity (a.u.)
CAGTCAGTCAGTAGGTTCCCAGAATTTTCTCCCTGCAAACCGGAGTCACCTAGTGCAG | 8050 fluorescence intensity (a.u.)

Sequence | binding signal
GTTGTCTTGCTGAGTTGGTTATATTTTGCAGAATATTCGGCGGAGTCACCTAGTGCAG | 11000 fluorescence intensity (a.u.)
AACTTCTACTCTTATTTTTCACGTGCACGCTTTAACTTTTCGGAGTCACCTAGTGCAG | 13100 fluorescence intensity (a.u.)
ATAATGTCGTTGATTTTTACATACCTTTAAGTATTTACCTCGGAGTCACCTAGTGCAG | 8030 fluorescence intensity (a.u.)
ATACATATTTTTTTCTCTATTTCTGCCCAACATGTTTTTCCGGAGTCACCTAGTGCAG | 8950 fluorescence intensity (a.u.)
ACACGGCCACCCGCATCCGCACCACCCGCAAGCCGCGACGCGGAGTCACCTAGTGCAG | 9450 fluorescence intensity (a.u.)
TCCAACGGTTACTGTCGCTTTAATATTCGTGCGTGGGGTTCGGAGTCACCTAGTGCAG | 8820 fluorescence intensity (a.u.)
TGGAGGCCGTGTATAGTTTGACCATTTCTTATATTGTAGACGGAGTCACCTAGTGCAG | 8510 fluorescence intensity (a.u.)
ATTAGTCACACATAACTATTGATGTTTTATTATCTAATATCGGAGTCACCTAGTGCAG | 8100 fluorescence intensity (a.u.)
TTCCCGAATTCCCAGACCAAATCTCCTCGCTTTTTGCTTCCGGAGTCACCTAGTGCAG | 10500 fluorescence intensity (a.u.)
CTCTAGAAAGTTCTAGATCTTCCGTGCGTGGTGGGCGGGTCGGAGTCACCTAGTGCAG | 11100 fluorescence intensity (a.u.)
GGACCGGTGATGGATTTTACTCTTCTAAAATCATTGCTTACGGAGTCACCTAGTGCAG | 8220 fluorescence intensity (a.u.)
CAATATTTATCTACCGTTCCTTGCTCGCCTGCTTTGCTTTCGGAGTCACCTAGTGCAG | 8550 fluorescence intensity (a.u.)
CTCCTCTCCTTTAATTCGGCCCCGCGCCGCCCGCTTCACCCGGAGTCACCTAGTGCAG | 8150 fluorescence intensity (a.u.)
CCTAATTTATTGTTGTACATGTTGCTAATATTTTTTTTATCGGAGTCACCTAGTGCAG | 11300 fluorescence intensity (a.u.)
CCTCTAGCTCTTGCATCGTGTCGTTTCTTTAGCTGCGTGTCGGAGTCACCTAGTGCAG | 12100 fluorescence intensity (a.u.)
TCGCGCTCGGCTTCGCGCCCTTCGTTCTCCGCCTCCTTTGCGGAGTCACCTAGTGCAG | 9180 fluorescence intensity (a.u.)
GAAAATTTTCCAATTCACTGTTGCAATATAACTGTAATAACGGAGTCACCTAGTGCAG | 8050 fluorescence intensity (a.u.)
CAACTCACTTATTTCTATTGTGCGCGCATGCTTTTTAAATCGGAGTCACCTAGTGCAG | 8300 fluorescence intensity (a.u.)
TGTCGCCATCGTATCACCGTCGCGTCGCCATCCCGTCGCCCGGAGTCACCTAGTGCAG | 8070 fluorescence intensity (a.u.)
TGCCGTTGCTTACACGCGCACCAATTGACACCTACAGTAACGGAGTCACCTAGTGCAG | 11000 fluorescence intensity (a.u.)
TGGTCGAGTGCATTTTTTTATTTCTTGTCATCGACAAGTACGGAGTCACCTAGTGCAG | 10300 fluorescence intensity (a.u.)

Sequence | binding signal
AAATTGAGGTGGCCTGTCTGTGCATCTGTGGAACATCATTCGGAGTCACCTAGTGCAG | 9220 fluorescence intensity (a.u.)
GGTACCTCTAATACTGTCGTCCGGTTGAATTTTTCGTGTACGGAGTCACCTAGTGCAG | 9950 fluorescence intensity (a.u.)
ACCGATACCTATAGTCATTTTCCCACCTTTATACCATAAACGGAGTCACCTAGTGCAG | 9070 fluorescence intensity (a.u.)
ACCTCCGGCCCAAGTACATTCATCCGGCCCAGCTTCACGACGGAGTCACCTAGTGCAG | 8180 fluorescence intensity (a.u.)
TTTTAAATAACCGTGTCTTGCTTTTTGGATGTATTCCAACCGGAGTCACCTAGTGCAG | 8140 fluorescence intensity (a.u.)
CCCCTGCAACCCACTGTGCCTGTGCCCTCGACGCGTCTCCCGGAGTCACCTAGTGCAG | 10600 fluorescence intensity (a.u.)
GGGGTTCGTTTTGTTTCTTGACACACGCTTGAGTCTTATTCGGAGTCACCTAGTGCAG | 16900 fluorescence intensity (a.u.)
CCTTCTCTCTCACCTGCGCACACGTACTGTACATATATACCGGAGTCACCTAGTGCAG | 9880 fluorescence intensity (a.u.)
CAACTGTGACGATGACCTCTCTGTAGATTCTTTTAATTTTCGGAGTCACCTAGTGCAG | 8920 fluorescence intensity (a.u.)
CGGACGCGTTGCTTTTGTTTCTTCTTGGCAACCATGATCGCGGAGTCACCTAGTGCAG | 9200 fluorescence intensity (a.u.)
CCGCTGCTAAGATTTTGCCACAATGCCATTCCGCGGAATGCGGAGTCACCTAGTGCAG | 8660 fluorescence intensity (a.u.)
ACTATCCTTGTCATTCCTGGTCTGGATTGAATCCGGGCGTCGGAGTCACCTAGTGCAG | 8110 fluorescence intensity (a.u.)
CGAAGAAATTTACCAGTGCTCCTAATTGCTACTGATCACCCGGAGTCACCTAGTGCAG | 8110 fluorescence intensity (a.u.)
GTCATCCAAATCATGCCATTTCTCGTTATTGCTTCGTCAACGGAGTCACCTAGTGCAG | 8630 fluorescence intensity (a.u.)
TCACTTGCACCTCGCGACCCATTTTAGCCTCTTGCTGTCCCGGAGTCACCTAGTGCAG | 8620 fluorescence intensity (a.u.)
AATATTCTCATGTAAAGGGCAACATCTTCTACTTAATATCCGGAGTCACCTAGTGCAG | 8640 fluorescence intensity (a.u.)
CTTGTAGCTGTAATTCCCTATTGTTGTTTTTCGGTACTGTCGGAGTCACCTAGTGCAG | 13200 fluorescence intensity (a.u.)
CTCTAATCCATTGCCTCGTTTTTCTCTATAGACTATTTCCCGGAGTCACCTAGTGCAG | 9440 fluorescence intensity (a.u.)
TTGTGTTTGGGCGGGAGAATTTTTGGGGATAGATTTGCGCCGGAGTCACCTAGTGCAG | 18500 fluorescence intensity (a.u.)
GTCATGTGAAGTAGCGCCTTGAGTCATCATCGTCAACGCTCGGAGTCACCTAGTGCAG | 8290 fluorescence intensity (a.u.)
ATGTTTGACCATTCATCTTATTCAAAAAATTTACGTAATTCGGAGTCACCTAGTGCAG | 8410 fluorescence intensity (a.u.)
